Data: article PMC7664202
These are yes or no findings as the source states them, for the method shown. In cells and extracts the contact can be indirect. Some entries that bind do so weakly or less than the wild type.

By UniProt entry, the sequences of proteins in these tests, tags left out.
UniProt O94953: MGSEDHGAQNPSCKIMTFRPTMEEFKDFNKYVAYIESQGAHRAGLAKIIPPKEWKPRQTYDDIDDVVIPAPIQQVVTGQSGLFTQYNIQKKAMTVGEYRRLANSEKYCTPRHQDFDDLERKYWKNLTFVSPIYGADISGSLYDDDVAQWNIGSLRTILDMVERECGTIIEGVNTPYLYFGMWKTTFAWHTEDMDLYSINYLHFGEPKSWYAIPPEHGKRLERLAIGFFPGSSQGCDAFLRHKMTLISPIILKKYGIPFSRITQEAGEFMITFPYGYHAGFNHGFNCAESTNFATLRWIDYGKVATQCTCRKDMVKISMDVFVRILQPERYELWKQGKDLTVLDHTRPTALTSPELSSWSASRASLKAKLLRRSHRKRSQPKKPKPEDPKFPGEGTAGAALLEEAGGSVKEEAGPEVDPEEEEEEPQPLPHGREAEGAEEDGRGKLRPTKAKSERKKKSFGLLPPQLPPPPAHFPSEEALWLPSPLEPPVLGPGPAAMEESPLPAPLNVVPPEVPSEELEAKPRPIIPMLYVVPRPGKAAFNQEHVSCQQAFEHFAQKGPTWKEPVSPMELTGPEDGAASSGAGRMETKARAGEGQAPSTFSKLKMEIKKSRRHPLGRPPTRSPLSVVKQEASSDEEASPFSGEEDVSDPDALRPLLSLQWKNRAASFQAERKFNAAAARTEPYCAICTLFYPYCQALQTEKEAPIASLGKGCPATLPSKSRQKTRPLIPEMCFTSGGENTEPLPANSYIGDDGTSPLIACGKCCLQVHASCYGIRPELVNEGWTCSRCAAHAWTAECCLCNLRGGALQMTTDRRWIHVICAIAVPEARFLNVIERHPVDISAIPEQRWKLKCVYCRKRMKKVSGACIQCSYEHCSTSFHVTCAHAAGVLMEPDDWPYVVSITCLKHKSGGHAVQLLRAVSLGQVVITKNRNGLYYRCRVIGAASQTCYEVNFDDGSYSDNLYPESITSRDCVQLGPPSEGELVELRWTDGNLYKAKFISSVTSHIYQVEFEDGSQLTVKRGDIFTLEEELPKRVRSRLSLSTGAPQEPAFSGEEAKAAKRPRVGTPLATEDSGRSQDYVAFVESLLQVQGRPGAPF

Key:
[1] = target: T1, liver X receptor α (LXRα) (human (endogenous in HepG2)) (UniProt Q13133); assay: condition: only cells not treated with the LXRα agonist T0901317; co-IP; as a1, but HepG2 cells infected with Ad-JMJD2B and incubated in the absence of T0901317
T1 sequence: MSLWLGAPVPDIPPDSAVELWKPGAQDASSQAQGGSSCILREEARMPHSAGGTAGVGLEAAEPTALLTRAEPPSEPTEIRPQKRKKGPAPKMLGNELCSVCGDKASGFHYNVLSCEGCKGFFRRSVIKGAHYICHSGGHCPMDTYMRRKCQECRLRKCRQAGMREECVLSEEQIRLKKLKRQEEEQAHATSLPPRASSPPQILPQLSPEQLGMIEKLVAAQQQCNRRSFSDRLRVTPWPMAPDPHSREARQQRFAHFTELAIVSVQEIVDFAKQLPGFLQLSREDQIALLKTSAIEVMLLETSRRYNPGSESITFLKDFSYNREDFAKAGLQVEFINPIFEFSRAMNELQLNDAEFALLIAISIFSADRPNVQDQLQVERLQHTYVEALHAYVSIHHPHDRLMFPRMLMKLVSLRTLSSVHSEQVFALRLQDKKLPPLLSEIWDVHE

[2] = target: T1, liver X receptor α (LXRα) (human (endogenous in HepG2)); assay: co-IP; HepG2 cells infected with Ad-JMJD2B and incubated with T0901317 for 24 h; lysis in 25 mM Tris-HCl pH 7.4, 150 mM NaCl, 1% NP-40, 1 mM EDTA, 5% glycerol; 500 μg protein; IP with JMJD2B antibody overnight at 4 °C, Protein A/G Plus-Agarose, blot for LXRα; reverse IP with LXRα antibody and blot for JMJD2B (Figure S2)
[3] = target: Jumonji domain-containing protein 2B (JMJD2B) (UniProt O94953); assay: condition: only cells not treated with the LXRα agonist T0901317; co-IP; as a1, but HepG2 cells infected with Ad-JMJD2B and incubated in the absence of T0901317
[4] = target: Jumonji domain-containing protein 2B (JMJD2B) (UniProt O94953); assay: co-IP; HepG2 cells infected with Ad-JMJD2B and incubated with T0901317 for 24 h; lysis in 25 mM Tris-HCl pH 7.4, 150 mM NaCl, 1% NP-40, 1 mM EDTA, 5% glycerol; 500 μg protein; IP with JMJD2B antibody overnight at 4 °C, Protein A/G Plus-Agarose, blot for LXRα; reverse IP with LXRα antibody and blot for JMJD2B (Figure S2)

With “Jumonji domain-containing protein 2B (JMJD2B) (from UniProt O94953 1-1096) (enzyme)” the binding [1] was “no binding” and the binding [2] was “binds”.

B1: liver X receptor α (LXRα) (receptor, UniProt Q13133 1-447)
chain: MSLWLGAPVPDIPPDSAVELWKPGAQDASSQAQGGSSCILREEARMPHSAGGTAGVGLEAAEPTALLTRAEPPSEPTEIRPQKRKKGPAPKMLGNELCSVCGDKASGFHYNVLSCEGCKGFFRRSVIKGAHYICHSGGHCPMDTYMRRKCQECRLRKCRQAGMREECVLSEEQIRLKKLKRQEEEQAHATSLPPRASSPPQILPQLSPEQLGMIEKLVAAQQQCNRRSFSDRLRVTPWPMAPDPHSREARQQRFAHFTELAIVSVQEIVDFAKQLPGFLQLSREDQIALLKTSAIEVMLLETSRRYNPGSESITFLKDFSYNREDFAKAGLQVEFINPIFEFSRAMNELQLNDAEFALLIAISIFSADRPNVQDQLQVERLQHTYVEALHAYVSIHHPHDRLMFPRMLMKLVSLRTLSSVHSEQVFALRLQDKKLPPLLSEIWDVHE
B1 was tested, and the binding [3] was “no binding” and the binding [4] was “binds”.
